Data taken from article PMC12097031.
These are yes or no findings as the source states them, for the method shown. Binding seen in cells or lysates may run through a third protein. These calls come from enrichment with a bait or labelling near it, and not all partners need be listed. For some of these results: A no says only that the protein was not detected with the bait.

Protein sequences, listed by entry. Tags and fused reporters are not part of them. Lines headed by an entry give the natural chain unless they say otherwise; changes in a name come on top.
UniProt P31749: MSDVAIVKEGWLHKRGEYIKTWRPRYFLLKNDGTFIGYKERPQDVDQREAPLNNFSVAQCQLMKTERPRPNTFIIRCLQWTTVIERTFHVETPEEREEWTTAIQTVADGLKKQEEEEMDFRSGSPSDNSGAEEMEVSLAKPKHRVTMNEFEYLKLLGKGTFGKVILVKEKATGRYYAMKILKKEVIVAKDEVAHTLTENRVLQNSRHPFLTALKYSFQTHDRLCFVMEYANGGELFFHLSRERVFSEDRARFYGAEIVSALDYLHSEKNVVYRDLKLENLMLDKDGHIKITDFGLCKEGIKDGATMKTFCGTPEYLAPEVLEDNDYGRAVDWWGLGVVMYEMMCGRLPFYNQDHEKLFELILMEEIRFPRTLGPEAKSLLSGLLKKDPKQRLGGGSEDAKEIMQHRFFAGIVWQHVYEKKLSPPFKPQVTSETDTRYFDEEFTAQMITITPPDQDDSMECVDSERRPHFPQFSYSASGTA
UniProt P63151: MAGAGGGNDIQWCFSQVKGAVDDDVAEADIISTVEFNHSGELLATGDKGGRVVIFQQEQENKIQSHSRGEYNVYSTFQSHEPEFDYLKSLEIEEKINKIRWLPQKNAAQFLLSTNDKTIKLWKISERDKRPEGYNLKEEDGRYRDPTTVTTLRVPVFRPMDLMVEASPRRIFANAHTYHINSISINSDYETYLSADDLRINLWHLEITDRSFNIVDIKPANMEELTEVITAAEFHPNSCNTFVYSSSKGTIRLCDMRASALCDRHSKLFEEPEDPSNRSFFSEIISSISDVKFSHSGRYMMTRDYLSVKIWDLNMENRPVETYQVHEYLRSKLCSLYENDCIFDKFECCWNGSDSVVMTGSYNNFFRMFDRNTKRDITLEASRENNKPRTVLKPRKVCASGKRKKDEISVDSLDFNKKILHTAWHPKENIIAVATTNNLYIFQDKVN

Experiments:
[1] = target: Flag-tagged AKT1 wild-type (UniProt P31749); assay: affinity purification with mass spectrometry; Flag immunoprecipitation from MCF-10A cells transfected with Flag-AKT1^WT or Flag-AKT1^E17K, with SVIL-AS1 knockdown; differential protein bands sent for MS
[2] = target: Flag-tagged AKT1 E17K mutant (UniProt P31749); assay: as above
[3] = target: Flag-tagged AKT1 wild-type (UniProt P31749); assay: condition: only control cells without SVIL-AS1 knockdown; affinity purification with mass spectrometry; Flag immunoprecipitation from control MCF-10A cells (no SVIL-AS1 knockdown) transfected with Flag-AKT1^WT or Flag-AKT1^E17K; differential protein bands sent for MS
[4] = target: Flag-tagged AKT1 E17K mutant (UniProt P31749); assay: as above

PPP2R2A, regulatory subunit (PP2A B) of the PP2A holoenzyme (from UniProt P63151 1-447)
binding [1]: binds | binding [2]: binds | binding [3]: no binding | binding [4]: no binding
